Experimental data published in the supplement of paper PMC9877034.
Structures can show the parent of a compound that is named as a salt. Over roughly 1,000 compounds, “cFRET/donor change relative to DMSO, normalised to beta-lapachone positive control (supercomplex I-IV assembly)” has its median near 0.18; the lowest 2% begin near -1. The list shows a part of the results.

test system: C2C12 (NDUFB8-AcGFP / COX8A-DsRed-Monomer FRET reporter); test: cFRET/donor change relative to DMSO, normalised to beta-lapachone positive control (supercomplex I-IV assembly) (fraction of beta-lapachone effect); higher = more respiratory supercomplex assembly; details: 40 µM; 24 h
Protocol: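 Cells were treated with 40 uM compound for 24 h and imaged on an IN Cell Analyzer 6000. Corrected FRET was divided by donor signal (cFRET/donor) and measured in two replicate experiments. The score is (mean cFRET/donor of compound - mean DMSO) / (mean beta-lapachone 40 uM - mean DMSO). Compounds flagged for prominent cell death, abnormal morphology or decreased cell number were excluded.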

SMILES | cFRET/donor change
CN1[C@@H]2CC[C@H]1CC(OC(=O)c1c[nH]c3ccccc13)C2 (stereo partly specified) [3-Tropanyl-indole-3-carboxylate hydrochloride] | 0.435
CCCCCCCCCCCCCCCCCCOCC(COP(=O)([O-])OCC[N+](C)(C)C)OC (stereo unspecified) | 0.501
CCCC1O[C@@H]2C[C@H]3[C@@H]4CCC5=CC(=O)C=C[C@]5(C)[C@H]4[C@@H](O)C[C@]3(C)[C@]2(C(=O)CO)O1 (stereo partly specified) [Budesonide] | 0.132
COc1ccc2[nH]c([S@@+]([O-])Cc3ncc(C)c(OC)c3C)nc2c1 [Esomeprazole magnesium dihydrate] | 0.951
CCCCCN(CCCCC)C(=O)C(CCC(=O)O)NC(=O)c1ccc(Cl)c(Cl)c1 (stereo unspecified) [Lorglumide sodium] | 0.132
Nc1nc2c(ncn2COCCO)c(=O)[nH]1 [Acyclovir] | 0.178
NCCSSCCN [Cystamine dihydrochloride] | 0.0633
Cc1cc(NC2CCCCC2)nc(-n2nc(C)cc2C)n1 | 0.569
NC(CCCP(=O)(O)O)C(=O)O (stereo not drawn) [D(-)-2-Amino-5-phosphonopentanoic acid] | 0.0246
C=C[C@@]1(C)CC(=O)[C@]2(O)[C@@]3(C)[C@@H](O)CCC(C)(C)[C@@H]3[C@H](O)[C@H](OC(C)=O)[C@@]2(C)O1 [Forskolin] | 0.315
Nc1c2c(nc3ccccc13)CCCC2 [9-Amino-1,2,3,4-tetrahydroacridine hydrochloride] | -0.0778
C[C@]12C[C@H](O)[C@H]3[C@@H](CCC4=CC(=O)CC[C@@]43C)[C@@H]1CC[C@@H]2C(=O)CO [Corticosterone] | 0.221
O=C1NCCc2[nH]c(-c3ccncc3)cc21 | -0.0657
COC(=O)C1=C(C)NC(C)=C(C(=O)OC2CCCN(Cc3ccccc3)C2)C1c1cccc([N+](=O)[O-])c1 (stereo unspecified) [Benidipine hydrochloride] | 0.367
CCc1ccc2c(-c3cccc(Cl)c3)nc(=O)n(CC)c2n1 | -0.0171
COC(=O)C1=C(C)NC(C)=C([N+](=O)[O-])C1c1ccccc1C(F)(F)F (racemic) | 0.544
c1ccc(-c2ccccn2)nc1 [2,2'-Bipyridyl] | -0.00296
COc1ccccc1N1CCN(CCN(C(=O)c2ccc(F)cc2)c2ccccn2)CC1 [p-MPPF dihydrochloride] | 0.296
O=C1CN(/N=C/c2ccc(-c3ccc([N+](=O)[O-])cc3)o2)C(=O)N1 [Dantrolene sodium] | 0.452
O=C(c1ccc2c(c1)OCCO2)N1CCCCC1 | 0.193
NC(N)=NC(=O)c1nc(Cl)c(N2CCCCCC2)nc1N [5-(N,N-hexamethylene)amiloride] | 0.351
CC1=C(CC(=O)O)c2cc(F)ccc2/C1=C\c1ccc(S(C)(=O)=O)cc1 [Sulindac sulfone] | 0.35
CC(=O)Oc1cc(C(C)C)c(OCCN(C)C)cc1C [Moxisylyte hydrochloride] | 0.564

3 compounds drawn at random from those above:
SMILES | cFRET/donor change
Nc1nc2c(ncn2COCCO)c(=O)[nH]1 [Acyclovir] | 0.178
COc1ccc2[nH]c([S@@+]([O-])Cc3ncc(C)c(OC)c3C)nc2c1 [Esomeprazole magnesium dihydrate] | 0.951
O=C1NCCc2[nH]c(-c3ccncc3)cc21 | -0.0657

(cont.)

SMILES | cFRET/donor change
O=C(CCSCc1ccco1)NNC(=O)N1Cc2ccccc2Oc2ccc(Cl)cc21 | 0.36
CC1=C(/C=C/C(C)=C/C=C/C(C)=C/C(=O)Nc2ccc(O)cc2)C(C)(C)CCC1 [Retinoic acid p-hydroxyanilide] | 0.885
CN(C)CCC=C1c2ccccc2C=Cc2ccccc21 [Cyclobenzaprine hydrochloride] | 0.462
NS(=O)(=O)c1cc2c(cc1Cl)NCNS2(=O)=O [Hydrochlorothiazide] | -0.0537
CC1CCN=C(N)S1 (racemic) [(±)-AMT hydrochloride] | 0.00413
Cc1nc(N=Nc2ccc(C(=O)O)cc2)c(COP(=O)(O)O)c(C=O)c1O | 0.439
Oc1ccc(O)cc1 [Hydroquinone] | 1.03
C[C@H]1C[C@H]2[C@@H]3CCC4=CC(=O)C=C[C@]4(C)[C@@]3(Cl)[C@@H](O)C[C@]2(C)[C@@]1(O)C(=O)CO [Beclomethasone] | -0.266
CC(=O)OCC(=O)[C@@]1(O)CC[C@H]2[C@@H]3CCC4=CC(=O)CC[C@]4(C)[C@H]3C(=O)C[C@@]21C [Cortisone 21-acetate] | 0.339
O=C1c2ccccc2C(=O)c2c(NCCc3ccc(O)cc3)ccc(NCCc3ccc(O)cc3)c21 | -1.29
NC(=O)c1ncn([C@@H]2O[C@H](CO)[C@@H](O)[C@H]2O)c1O [Mizoribine] | 0.153
Nc1ncnc2c1ncn2[C@@H]1O[C@H](COP(=O)(O)CP(=O)(O)OP(=O)(O)O)[C@H](O)C1O (stereo partly drawn) [alpha,beta-Methylene adenosine 5'-triphosphate dilithium] | 0.245
Cc1ccc(C(=O)Nc2ccc(S(=O)(=O)O)c3cc(S(=O)(=O)O)cc(S(=O)(=O)O)c23)cc1NC(=O)c1cccc(NC(=O)Nc2cccc(C(=O)Nc3cc(C(=O)Nc4ccc(S(=O)(=O)O)c5cc(S(=O)(=O)O)cc(S(=O)(=O)O)c45)ccc3C)c2)c1 [Suramin sodium salt] | -0.0424
C=CCN1CCc2c(cc(O)c(O)c2Cl)C(c2ccccc2)C1 (racemic) [(±)-Chloro-APB hydrobromide] | 2.52
CNCCC=C1c2ccccc2CCc2ccccc21 [Nortriptyline hydrochloride] | 0.236
O=c1onc2n1-c1cc(Br)ccc1OC2 | 0.326
Cc1ccc(/C(=C\CN2CCCC2)c2ccccn2)cc1 [Triprolidine hydrochloride] | 0.195
C[C@]12C=CC(=O)C=C1CC[C@@H]1C2=CC[C@]2(C)[C@@H](C(=O)CN3CCN(c4cc(N5CCCC5)nc(N5CCCC5)n4)CC3)CC[C@@H]12 | -1.85
O=C(O)C1=CCNCC1 [Isoguvacine hydrochloride] | -0.33
CCn1cc(C(=O)O)c(=O)c2cc(F)c(N3CCNC(C)C3)c(F)c21 (stereo unspecified) [Lomefloxacin hydrochloride] | 0.361
NC(=O)c1cc[n+](CC2=C(C(=O)O)N3C(=O)[C@@H](NC(=O)C(c4ccccc4)S(=O)(=O)[O-])[C@H]3SC2)cc1 (stereo partly specified) [Cefsulodin sodium salt hydrate] | 0.575
CS(=O)(=O)Nc1ccc([N+](=O)[O-])cc1Oc1ccccc1 [Nimesulide] | 0.334
O=c1ccc2c(OCCCCc3ccccc3)c3ccoc3cc2o1 [Psora-4] | 0.396
